# Some entries share one result that the patent states for a list of compounds. Some compounds share one range, which may span the group rather than tell each member.
# Tests used:
# [1] = system: mannosylation level of mAb1; test: Glycosylation (mannosylation) profile of mAb1 by 2AB-UPLC; format: cell-based, Chinese hamster
# Method: (§1) All assays were performed in fed-batch culture. A serum-free chemically defined culture medium was used. It was used as it is, or it was supplemented with polyether ionophore compounds (maduramycin, narasin, salinomycin and lasalocid were all purchased from Sigma-Aldrich) at the desired concentrations. The culture medium was fed, on a regular basis, with a chemically defined feed medium, as well as with glucose in order to keep said glucose level in the range of >0 to about 8 g/L (feeds were done at days 3, 5, 7, 10 and additional glucose feed at day 12).
# (§2) For examples 2 and 3, cultures were performed in Ambr®15 with a working volume of 14 mL (36.5° C., Dissolved Oxygen 40%, 0.1 ml/min N2, pH range: 6.75-7.15, 800 rpm). A temperature shift was performed at day 6 for the cells expressing mAb1. Further conditions are mentioned in Table 2.
# Glycosylation profiles were established either by Ultra Performance Liquid Chromatography-2-amino-benzamide labelling technique (2AB-UPLC; mAb1) or by mass spectroscopy (MS; mAB2). Groups of glycans were defined in Table 1.
# (§3) The cells were cultivated and the results analysed as disclosed in the material and method section.
# mAb2 cells = test: Titre (PA-HPLC) of mAb2 cells, fed-batch Ambr15; format: cell-based, Chinese hamster; settings: 5 and 10 nM added at the start of the culture
# Method: Cells expressing mAb1 and mAb2 were inoculated at 0.2×10^6 cells per millilitre (mL).
# as §1, §2
# Each of the fed-batch culture lasted 14 days.
# Viable cell density and viability were measured with the ViCell® (Beckmann Coulter). Antibody titers were measured with PA-HPLC.
# as §3
smiles,measurement,setting,value
"CC[C@@H](C(=O)[C@@H](C)[C@@H](O)[C@H](C)[C@@H]1O[C@@H]([C@@H](CC)C(=O)O)CC[C@@H]1C)[C@H]1O[C@]2(C=C[C@@H](O)[C@]3(CC[C@@](C)([C@H]4CC[C@](O)(CC)[C@H](C)O4)O3)O2)[C@H](C)C[C@@H]1C [salinomycin, Salinomycin]",increase of afucoslyated glycoforms,[1]; data non shown,1-2%
same,decrease of the level of fucosylated glycoforms,[1]; not shown,3 to 40%
same,protein titre compared to the control at the end of culture,mAb2 cells,up to +10%
